Our source for the AC50 values is PubChem BioAssay AID493014 (National Center for Advancing Translational Sciences (NCATS), 2011).

A short description of the assay: qHTS Assay to Find Inhibitors of Chronic Active B-Cell Receptor Signaling. The note with it: ABC-DLBCL IkBa-CBG/CBR reporter, luminescence ratio (green luciferase fused to IkBa over red control in TMD8 lymphoma cells), 4 h. Summed up:
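Compounds up to 46 uM were incubated four hours with TMD8 cells whose green CBG68 luciferase is fused to IkappaBalpha; red CBR luminescence normalised the signal, and concentration-effect curves were fitted to fusion, red and ratio data.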
Background: Quantitative high-throughput screening tests each substance at several concentrations.

[1] abbreviates: measured here: CBR red luminescence, cell number.
Setting [2] is: measured here: IkBa-CBG green luminescence.

As usually defined, the AC50 is the concentration giving half of the maximal activity seen.

The list shows a part of the results. Further columns of the screen follow, without active or inactive calls. Most of these compounds were active or inconclusive in the main read-out, so they are no random draw. The note in brackets gives the kind of curve behind each potency; many fits are weak.

Consider `O=C(NNc1c2ccccc2nc2ccccc12)c1ccc(O)cc1`, for which the half-maximal activity concentration (AC50) under setting [1] is 20.6 µM [falling, partial curve, poor fit].

With `COc1ccccc1OCc1ccc(C(=O)N2N=C(C(F)F)CC2(O)C(F)F)o1` (stereo unspecified), the concentration at half-maximal activity (AC50) under setting [1] was 2.91 µM [falling, partial curve, poor fit].

Consider `O=C(Cc1ccccc1)Nc1ccccc1C(=O)O`, for which the AC50 under setting [1] was 20.6 µM [falling, single point].

`Cc1ccccc1N1C(S)=C(C#N)C(=O)NC12CCCCC2`: the AC50 under setting [1] is 18.4 µM [rising, single point].

Take `CSCC(C)N1CCC(n2nccc2NC(=O)c2ccc3c(c2)OCO3)CC1` (stereo unspecified): the AC50 under setting [1] is 2.82 µM [rising, partial curve, poor fit].

For the compound `C=CCN1C(=O)CSc2ccc(C(=O)NCCC3=CCCCC3)cc21`, the AC50 under setting [1] was 2.59 µM [rising, partial curve].

As for `CCC(CC)C(=O)Nc1cc(C(=O)NCCc2ccccc2)ccc1Cl`, the concentration at half-maximal activity (AC50) under setting [1] is 3.16 µM [rising, single point].

For the compound `Cc1cccc(NC(=O)C2COc3ccccc3O2)n1` (stereo unspecified), the AC50 under setting [1] was 0.562 µM [rising, full curve, poor fit].

Turning to `Cc1ccc(-c2nn(-c3ccccc3)cc2/C=N/NS(=O)(=O)c2ccccc2)cc1`, the AC50 under setting [1] was 6.31 µM [rising, partial curve, poor fit].

Turning to `COC(=O)c1cccc(NC(=O)CSc2nnc(C)o2)c1`, under setting [1], the AC50 was 8.91 µM [falling, partial curve, poor fit].

As for `COc1ccc(C(CC(=O)O)NC(=O)OC(C)(C)C)cc1` (stereo unspecified), the AC50 under setting [1] was 29.1 µM [rising, single point].

Consider `Cc1ccc(NC(=O)CCn2c(=O)[nH]c3ccsc3c2=O)cc1F`, for which the AC50 under setting [1] was 5.62 µM [falling, partial curve, poor fit].

Turning to `C/C(CC(=O)Nc1ccccn1)=N\NC(=O)C(=O)Nc1cccc(C)c1`, the half-maximal activity concentration (AC50) under setting [1] was 11.2 µM [falling, partial curve].

As to `O=C(Nc1ccccc1Cl)Nc1cccnc1Cl`, the half-maximal activity concentration (AC50) under setting [1] was 3.16 µM [falling, full curve].

Regarding `C/C(=N\NC(=O)c1sccc1-n1cccc1)c1cccs1`, the AC50 under setting [1] was 8.91 µM [rising, partial curve].

Consider `Cc1cc(C)n2[nH]c(=O)c(N=Nc3ccccc3)c2n1`, for which the AC50 under setting [1] is 1.84 µM [falling, partial curve, poor fit].

In the case of `COc1cccc(-c2cc(C(F)(F)F)nc(-n3cccn3)n2)c1`, the half-maximal activity concentration (AC50) under setting [1] is 13 µM [falling, partial curve, poor fit].

Turning to `Cc1ccc(C2N(c3ccc(Cl)c(Cl)c3)C(=O)C3CCCN32)o1` (stereo unspecified), under setting [1], the half-maximal activity concentration (AC50) is 2.31 µM [rising, partial curve, poor fit].

Regarding `COc1cccc(CC(=O)n2nc(N)c3cc4ccc(OC)cc4nc32)c1`, the AC50 under setting [1] is 0.146 µM [falling, full curve] and the concentration at half-maximal activity (AC50) under setting [2] is 0.103 µM [rising, full curve, poor fit].

In the case of `CSc1nsc(SCC(=O)Nc2ccccc2F)n1`, the AC50 under setting [1] was 3.98 µM [falling, partial curve].

As to `COc1ccccc1OCCn1nnc2ccccc21`, the half-maximal activity concentration (AC50) under setting [1] is 2.51 µM [rising, partial curve, poor fit].

Take `CCOc1ccc(S(=O)(=O)NCc2ccccn2)cc1NC(=O)c1ccccc1`: the AC50 runs as follows: under setting [1], 29.1 µM [rising, single point]; under setting [2], 18.4 µM [falling, single point].

As to `O=C(CSc1ncn[nH]1)Nc1nnc(-c2ccccc2)s1`, the AC50 reads like this: under setting [1], 1.46 µM [falling, partial curve]; under setting [2], 23.1 µM [falling, partial curve, poor fit].

On to `COc1ccc2c(c1)CCc1cc(C(=O)N3CCN(c4ccc(N5CCOCC5)nn4)CC3)sc1-2`, for which the AC50 under setting [1] is 32.6 µM [falling, single point].

Regarding `Cc1ccc(NC(=O)C2CC3CCC2C3)c(Br)c1` (stereo unspecified), the half-maximal activity concentration (AC50) under setting [1] is 10 µM [rising, partial curve].

In the case of `CCOC(=O)c1ccc(NC(=S)NC(=O)C2CCCC2)cc1`, the half-maximal activity concentration (AC50) under setting [1] was 10 µM [rising, partial curve, poor fit].

For the compound `CCc1ccccc1NC(=O)CN1CCN(C(=O)CCC(=O)N2CCC(c3ccccc3)=N2)CC1`, the AC50 under setting [1] was 32.6 µM [rising, partial curve, poor fit].

For `CCOc1ccccc1NC(=O)Cc1coc2cc(C)ccc12`, under setting [1], the concentration at half-maximal activity (AC50) was 0.092 µM [falling, full curve, poor fit].

As for `Cc1ccccc1NC(=S)N/N=C1\CC(C)(C)Oc2ccc(O)cc21`, the half-maximal activity concentration (AC50) under setting [1] was 35.5 µM [falling, single point].

Turning to `CCn1c(SCC(=O)Nc2nccs2)nnc1-c1ccc(S(=O)(=O)N2CCCCCC2)cc1`, the AC50 under setting [1] was 20.6 µM [falling, single point].

As to `CN(C)C(=S)N=Nc1[nH]c2ccccc2c1O`, the AC50 under setting [1] is 5.62 µM [falling, single point] and the half-maximal activity concentration (AC50) under setting [2] is 3.98 µM [falling, full curve].

With `Cc1cc(-c2ccccc2)c2c(=O)[nH][nH]c2n1`, the half-maximal activity concentration (AC50) under setting [1] is 32.6 µM [falling, single point] and the concentration at half-maximal activity (AC50) under setting [2] is 23.1 µM [rising, partial curve, poor fit].

As for `Cc1ccc(S(=O)(=O)NC2=NCN(CCOC(=O)c3ccccc3)CN2)cc1`, the AC50 under setting [1] was 4.11 µM [rising, partial curve, poor fit].

For the compound `CCCC(=O)OCCNc1cc(Sc2nc3ccccc3[nH]2)c2nonc2c1[N+](=O)[O-]`, the half-maximal activity concentration (AC50) under setting [1] is 29.1 µM [falling, single point] and the half-maximal activity concentration (AC50) under setting [2] was 32.6 µM [rising, single point].

In the case of `CCS(=O)(=O)NCCNc1ccc([N+](=O)[O-])cc1`, the AC50 under setting [1] is 35.5 µM [rising, single point].

`COC(=O)c1sc(NC(=O)CSc2n[nH]c(N)n2)c(C(=O)OC)c1C`: the AC50 under setting [1] is 10 µM [falling, partial curve, poor fit].

Take `CCOC(=O)c1cccc(NC(=O)Nc2ccc(OCC)cc2)c1`: the AC50 under setting [1] was 35.5 µM [falling, single point].

In the case of `Cc1ccc(-c2cc(C(=O)N3CCN(c4ccccc4)CC3)c3ccccc3n2)cc1C`, under setting [1], the AC50 was 0.251 µM [rising, full curve, poor fit].

Turning to `Cc1cc(C(C)(C)C)cc(C)c1Cn1c2[n+](c3ccc(C(F)(F)F)cc31)CCCCC2`, under setting [1], the half-maximal activity concentration (AC50) was 20 µM [falling, single point].

Consider `O=C(NCCCN1CCOCC1)c1ccc2c(c1)N(Cc1cccc(F)c1)C(=O)c1ccccc1S2`, for which the AC50 under setting [1] was 20 µM [falling, partial curve, poor fit].

Regarding `CCSc1nnc(NC(=O)C(C)C)s1`, under setting [1], the half-maximal activity concentration (AC50) is 32.6 µM [falling, single point].

Consider `O=C(Nc1ccncc1)c1cc2ccccc2o1`, for which, under setting [1], the concentration at half-maximal activity (AC50) was 10 µM [falling, partial curve].

With `Cn1c(=O)[nH]c(=O)c2c1nc(SCC(N)=O)n2Cc1cccc(Br)c1`, the half-maximal activity concentration (AC50) is 14.1 µM [rising, partial curve] under setting [1] and 14.1 µM [falling, partial curve] under setting [2].

With `Cc1ccc(C(=O)CNc2ccc(Cl)cc2)cc1`, under setting [1], the AC50 was 10 µM [falling, partial curve].

Take `COc1ccc(-c2nc3c(s2)CN(S(C)(=O)=O)CC3)cc1OC`: under setting [1], the AC50 is 14.1 µM [rising, partial curve].

Take `CCCOc1ccccc1NC(=O)/C=C/C(N)=O`: the AC50 is, setting by setting: under setting [1], 23.1 µM [falling, partial curve]; under setting [2], 23.1 µM [rising, partial curve, poor fit].

On to `Cc1ccc(NCCCCO)cc1C`, for which the AC50 under setting [1] was 6.31 µM [rising, single point].

Consider `C/C(=N\NC(=O)Cc1cccn1C)c1ccc2ccccc2c1`, for which the AC50 under setting [1] is 2.91 µM [rising, single point].

Regarding `COc1cc(NC(=O)C(C)Oc2ccccc2)cc(OC)c1` (stereo unspecified), the AC50 under setting [1] was 7.94 µM [rising, partial curve].

Consider `CC(C)C(=O)NNC(=O)c1csc(CS(=O)(=O)c2ccc(Cl)cc2)n1`, for which the AC50 under setting [1] was 22.4 µM [rising, single point].

As for `Cc1ccc(C(=O)OCC(=O)NCc2cccs2)cc1S(=O)(=O)N1CCOCC1`, the concentration at half-maximal activity (AC50) under setting [1] was 0.794 µM [rising, full curve, poor fit].

Consider `COc1ccc(S(=O)(=O)Nc2ccc(S(=O)(=O)N3CCCCC3)cc2)cc1OC`, for which the concentration at half-maximal activity (AC50) under setting [1] is 29.1 µM [rising, single point].

Consider `C=C(C)COc1ccc(-c2nc(N)ncc2-c2ccc(Br)cc2)c(O)c1`, for which the concentration at half-maximal activity (AC50) under setting [1] was 7.94 µM [rising, partial curve, poor fit].

In the case of `O=c1oc2ccccc2c(CNc2ccccc2)c1[N+](=O)[O-]`, the AC50 under setting [1] is 8.91 µM [falling, partial curve].

For the compound `CCCCCC1CCC(c2n[nH]c(=S)n2C)CC1` (stereo unspecified), the AC50 under setting [2] was 10 µM [falling, partial curve].

For `Cc1cc(NC(=O)Nc2cccc(Cl)c2)n(C(C)(C)C)n1`, the concentration at half-maximal activity (AC50) under setting [1] is 35.5 µM [rising, single point].

As for `COc1cc(C(=O)Nc2ccc3c(c2)ncn3C)cc(OC)c1OC`, under setting [2], the half-maximal activity concentration (AC50) is 35.5 µM [falling, single point].

As for `O=C(O)C1CCCCC1C(=O)Nc1ccc(OCc2ccccc2)cc1` (stereo unspecified), under setting [1], the concentration at half-maximal activity (AC50) is 11.2 µM [falling, partial curve, poor fit].

Turning to `Cn1cnc2c(N/N=C/c3cccs3)ncnc21`, the AC50 under setting [1] was 10 µM [falling, partial curve].

Turning to `O=C(NC1=NCCS1)c1nc(-c2ccccc2)n(-c2ccccc2)n1`, under setting [1], the half-maximal activity concentration (AC50) is 5.8 µM [falling, single point].

In the case of `Cc1ccc(NC(=O)CSc2nnc(-c3cccnc3)o2)c(C)c1`, under setting [1], the AC50 is 20.6 µM [falling, partial curve, poor fit].

Take `COc1ccc(NC(=O)CNCCC2=CCCCC2)cc1`: the AC50 under setting [1] was 23.1 µM [rising, single point].

Consider `CC(=O)NC(C(=O)OCC(=O)N(c1ccccc1)c1ccccc1)C(C)C` (stereo unspecified), for which, under setting [1], the half-maximal activity concentration (AC50) is 11.2 µM [rising, single point].
